PubChem BioAssay AID1224828 | NIAID | 2016
Test: 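Regulators linking TLR4 signalling to p65 nuclear translocation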 (primary screen). Cells: mouse RAW264.7 G9 macrophage reporter cells (GFP-p65, Tnf promoter-mCherry). Reagent: siRNA pool against mouse genes, 100 nM. Duration: 2 days siRNA transfection, then 40 min LPS before fixation. Challenge: LPS (Salmonella minnesota R595) at 10 ng/ml. Measured: 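Imaged p65 nuclear translocation ratio, normalised to the plate median, converted to robust z-scores and averaged across two replicates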. Reading the numbers: p65 translocation robust z-score: higher = more nuclear NF-kappaB p65 after LPS than the plate median; nuclear/cytoplasmic p65 ratio: higher = more nuclear NF-kappaB p65. Call rule: 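Called active when z exceeds 3.3 or falls under -1.56 (median of Tlr4 controls), giving activity score of at least 50; no calls for control wells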. Meaning of the calls: active = hit (p65 shift raised or lowered); inactive = no clear change.
In all, the deposit lists about 17,000 reagents; below is a random part of them. 762 of them (4.5%) were called active. 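Active calls include both raised and lowered p65 entry, mostly lowered; wells with fewer than 50 cells lack a z-score.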 The raw values are shown without normalisation. Unmarked entries are inactive. A reagent listed more than once was tested more than once; the source does not tell the runs apart.

Gene | p65 translocation robust z-score | nuclear/cytoplasmic p65 ratio, rep 1 | nuclear/cytoplasmic p65 ratio, rep 2 | low cell count flag
Myocd | -1.01 | 1.41 | 1.22 | enough cells to score
Mid2 | 1.41 | 1.85 | 1.82 | enough cells to score
Guca2b | -0.5 | 1.29 | 1.38 | enough cells to score
Acat2 | -0.31 | 1.59 | 1.56 | enough cells to score
Gpr173 | 1.72 | 1.74 | 1.98 | enough cells to score
Gpr173 | – | 1.32 | 1.18 | fewer than 50 cells per well; well left out of scoring
Tjap1 | 0.91 | 1.53 | 1.71 | enough cells to score
Zpld1 | 1.27 | 1.52 | 1.8 | enough cells to score
Cyyr1 | -1.16 | 1.42 | 1.57 | enough cells to score
Prrg4 | -0.01 | 1.38 | 1.54 | enough cells to score
Sema3b | 1.17 | 1.57 | 1.38 | enough cells to score
Csnk2b | -0.29 | 1.61 | 1.37 | enough cells to score
Parn | -1.09 | 1.26 | 1.15 | enough cells to score
Or11h4b | – | 1.47 | 1.24 | fewer than 50 cells per well; well left out of scoring
Fam181b | 0.71 | 1.44 | 1.67 | enough cells to score
Tekt1 | – | 1.22 | 0.951 | fewer than 50 cells per well; well left out of scoring
Ccdc106 | -1.24 | 1.44 | 1.58 | enough cells to score
Hspa12a | 1.04 | 1.59 | 1.67 | enough cells to score
Usp9x | -0.32 | 1.49 | 1.44 | enough cells to score
Tnfsf13b | -0.56 | 1.42 | 1.46 | enough cells to score
Akr1c18 | – | 1.76 | 1.91 | fewer than 50 cells per well; well left out of scoring
Fxyd1 | 0.08 | 1.44 | 1.39 | enough cells to score
Irgc | – | 1.49 | 1.36 | fewer than 50 cells per well; well left out of scoring
Cd247 | 1.47 | 1.68 | 1.55 | enough cells to score

Entries listed so far whose gene name begins with A or a:
Gene | p65 translocation robust z-score | nuclear/cytoplasmic p65 ratio, rep 1 | nuclear/cytoplasmic p65 ratio, rep 2 | low cell count flag
Acat2 | -0.31 | 1.59 | 1.56 | enough cells to score
Akr1c18 | – | 1.76 | 1.91 | fewer than 50 cells per well; well left out of scoring
